Measurements reported in PubChem BioAssay AID504774 (Drosophila RNAi Screening Center, 2011)

- Assay: 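Knock-downs that shift viability of MMS-exposed cells relative to untreated ones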 (primary screen)
- System: Drosophila Kc167 cells
- Reagents: long dsRNA against Drosophila genes, about 0.25 µg dsRNA per well
- Duration: about 6 days: 3 days knock-down, then 3 days with or without MMS
- Treatment: methyl methanesulphonate 0.004% (w/v) for 3 days after knock-down
- Measurement: 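ATP-dependent luminescence as a measure of live cells in MMS-exposed wells, quantile normalised within each plate, with replicate values also given as a mean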
- Direction: mean viability with MMS and viability with MMS: higher = more surviving cells after MMS
The deposit covers about 23,000 reagents; shown is a random part of those that have a named target and a result. 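Values are quantile-normalised luminescence on an arbitrary scale; higher means more cells surviving MMS.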 Names joined by + are all predicted targets of the reagent.

Target gene | amplicon | mean viability with MMS | viability with MMS, replicate 1 | viability with MMS, replicate 2
beg (bad egg) | DRSC10923 | 3.59e6 | 4.12e6 | 4.02e6
CG18649 | DRSC10334 | 3.62e6 | 4.15e6 | 4.05e6
CG12674 | DRSC00348 | 3.49e6 | 3.97e6 | 3.94e6
CG5665 | DRSC11783 | 3.65e6 | 4.23e6 | 4.02e6
iav (inactive) | DRSC18363 | 3.41e6 | 4.09e6 | 3.65e6
Rad9 | DRSC11263 | 3.60e6 | 4.01e6 | 4.15e6
Xrp1 | DRSC15282 | 2.80e6 | 3.58e6 | 3.55e6
Xrp1 | DRSC15283 | 3.39e6 | 4.16e6 | 3.57e6
FLASH (FLICE-associated huge protein) | DRSC06872 | 1.87e6 | 4.06e6 | 4.01e6

No new results follow: 2 of the entries above.
Target gene | amplicon | mean viability with MMS | viability with MMS, replicate 1 | viability with MMS, replicate 2
Xrp1 | DRSC15282 | 2.80e6 | 3.58e6 | 3.55e6
Xrp1 | DRSC15283 | 3.39e6 | 4.16e6 | 3.57e6

More entries:
Target gene | amplicon | mean viability with MMS | viability with MMS, replicate 1 | viability with MMS, replicate 2
fd3F (retired record) + Crg-1 | DRSC17283 | 3.45e6 | 3.90e6 | 3.94e6
st (scarlet) | DRSC11399 | 3.39e6 | 3.82e6 | 3.85e6
UQCR-14L (Ubiquinol-cytochrome c reductase 14 kDa subunit-like) | DRSC15288 | 3.71e6 | 4.28e6 | 4.10e6
UQCR-14L (Ubiquinol-cytochrome c reductase 14 kDa subunit-like) | DRSC22425 | 3.76e6 | 4.17e6 | 4.21e6
BORCS5 (BLOC-1 related complex subunit 5) | DRSC19427 | 3.66e6 | 3.91e6 | 4.30e6
ND-SGDH (NADH dehydrogenase (ubiquinone) SGDH subunit) | DRSC11102 | 3.50e6 | 3.95e6 | 3.99e6
mRF1 (mitochondrial translation release factor 1) | DRSC02880 | 3.46e6 | 3.85e6 | 3.95e6
ppk15 (pickpocket 15) | DRSC14733 | 3.27e6 | 3.69e6 | 3.70e6
CG30031 + deltaTry + gammaTry | DRSC07622 | 3.28e6 | 3.86e6 | 3.07e6
Mfe2 (peroxisomal Multifunctional enzyme type 2) | DRSC19869 | 3.41e6 | 3.97e6 | 3.55e6
CG14301 | DRSC14780 | 3.57e6 | 3.93e6 | 4.16e6
PK1-R (Pyrokinin 1 receptor) | DRSC16577 | 3.77e6 | 4.36e6 | 4.19e6
Blos2 | DRSC10147 | 3.64e6 | 4.11e6 | 4.10e6
Taf12 (TBP-associated factor 12) | DRSC16879 | 3.52e6 | 3.96e6 | 4.00e6
Jig | DRSC14974 | 3.55e6 | 3.87e6 | 4.19e6
CG9062 | DRSC07327 | 3.61e6 | 4.35e6 | 3.92e6
snRNA:U1:95Cc (small nuclear RNA U1 at 95C c) | DRSC13640 | 3.24e6 | 3.70e6 | 3.72e6
Etf-QO (Electron transfer flavoprotein-ubiquinone oxidoreductase) | DRSC06111 | 3.56e6 | 4.12e6 | 3.95e6
CG34247 | DRSC09933 | 3.65e6 | 4.14e6 | 4.10e6
